# Results as given in PMC6089501 (Journal of Medicinal Chemistry, 2018).
# Test: in vitro
# Details: dog, MDCK-MDR1
structure (smiles),measurement,value
"CC(C)NCC(O)COc1ccc(CC(N)=O)cc1 (centres unmarked) [Atenolol, reference compound]",Papp A→B,1 ×10⁻⁶ cm/s
same,Papp B→A,1 ×10⁻⁶ cm/s
